The values that follow come from patent publication US12351590B2, “Pyrrolopyrimidine compound and use thereof” (GUANGZHOU JOYO PHARMATECH CO., LTD., priority 2019, dated 2025).

SMILES strings stand for the structures.

This series in a line: in vitro. Particulars: human, Caco-2, pH 7.4. The protocol:
The transport buffer solution was HBSS (Hanks' balanced salt solution) and 10 mM HEPES [N-(2-hydroxyethyl)piperazine-N′-(2-ethanesulfonic acid)], pH 7.40±0.05; Caco-2 cells were purchased from ATCC.
Caco-2 cells were seeded at 1×10^5 cells/cm^2 in polyethylene terephthalate (PET) 96-well BD insert plates, and the medium was refreshed every 4-5 days until day 21-28 to form a confluent monolayer. Test compounds were tested in a two-way format at 2 μM in duplicate. Digoxin was added at 10 μM in the two-way format, and nadolol and metoprolol were added at 2 μM in the two-way format. Final DMSO concentration was adjusted to less than 1%. The plates were incubated in a CO2 incubator at 37±1° C. for 2 h and at 5% CO2 and saturated humidity without shaking. All samples were mixed with acetonitrile containing an internal standard, centrifuged at 4000 rpm for 10 min. 100 microliters of supernatant was diluted with 100 microliters of distilled water for LC/MS/MS analysis. […] After the transport test, the integrity of the Caco-2 cell monolayer was determined by fluorescein yellow exclusion reaction, and the apparent permeability coefficient and efflux ratio were calculated.

Regarding `C[C@H]1O[C@@H](O[C@H]2[C@@H](O)C[C@H](O[C@H]3[C@@H](O)C[C@H](O[C@H]4CC[C@@]5(C)[C@H](CC[C@@H]6[C@@H]5C[C@@H](O)[C@]5(C)[C@@H](C7=CC(=O)OC7)CC[C@]65O)C4)O[C@@H]3C)O[C@@H]2C)C[C@H](O)[C@@H]1O` [Digoxin, reference compound], the Papp B→A (in general, the apparent permeability from the basolateral to the apical side of a cell layer) at 2 h, 10 μM amounted to 13.9 ×10⁻⁶ cm/s and the efflux ratio (usually a quotient of directional permeabilities that is used to spot active efflux) at 2 h, 10 μM was determined as 349.
